From the supplement of paper PMC11732987, “Enantioselective OTUD7B fragment discovery through chemoproteomics screening and high-throughput optimisation” (Communications Chemistry, 2025)
The other results are listed elsewhere or left out. The data scatter; read single values as rough.

Protein sequences, listed by entry. Tags and fused reporters are not part of them. Lines headed by an entry give the natural chain unless they say otherwise; changes in a name come on top. Residues count along the entry.
UniProt Q9P2D0, 512-532: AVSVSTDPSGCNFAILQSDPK
UniProt Q8N201: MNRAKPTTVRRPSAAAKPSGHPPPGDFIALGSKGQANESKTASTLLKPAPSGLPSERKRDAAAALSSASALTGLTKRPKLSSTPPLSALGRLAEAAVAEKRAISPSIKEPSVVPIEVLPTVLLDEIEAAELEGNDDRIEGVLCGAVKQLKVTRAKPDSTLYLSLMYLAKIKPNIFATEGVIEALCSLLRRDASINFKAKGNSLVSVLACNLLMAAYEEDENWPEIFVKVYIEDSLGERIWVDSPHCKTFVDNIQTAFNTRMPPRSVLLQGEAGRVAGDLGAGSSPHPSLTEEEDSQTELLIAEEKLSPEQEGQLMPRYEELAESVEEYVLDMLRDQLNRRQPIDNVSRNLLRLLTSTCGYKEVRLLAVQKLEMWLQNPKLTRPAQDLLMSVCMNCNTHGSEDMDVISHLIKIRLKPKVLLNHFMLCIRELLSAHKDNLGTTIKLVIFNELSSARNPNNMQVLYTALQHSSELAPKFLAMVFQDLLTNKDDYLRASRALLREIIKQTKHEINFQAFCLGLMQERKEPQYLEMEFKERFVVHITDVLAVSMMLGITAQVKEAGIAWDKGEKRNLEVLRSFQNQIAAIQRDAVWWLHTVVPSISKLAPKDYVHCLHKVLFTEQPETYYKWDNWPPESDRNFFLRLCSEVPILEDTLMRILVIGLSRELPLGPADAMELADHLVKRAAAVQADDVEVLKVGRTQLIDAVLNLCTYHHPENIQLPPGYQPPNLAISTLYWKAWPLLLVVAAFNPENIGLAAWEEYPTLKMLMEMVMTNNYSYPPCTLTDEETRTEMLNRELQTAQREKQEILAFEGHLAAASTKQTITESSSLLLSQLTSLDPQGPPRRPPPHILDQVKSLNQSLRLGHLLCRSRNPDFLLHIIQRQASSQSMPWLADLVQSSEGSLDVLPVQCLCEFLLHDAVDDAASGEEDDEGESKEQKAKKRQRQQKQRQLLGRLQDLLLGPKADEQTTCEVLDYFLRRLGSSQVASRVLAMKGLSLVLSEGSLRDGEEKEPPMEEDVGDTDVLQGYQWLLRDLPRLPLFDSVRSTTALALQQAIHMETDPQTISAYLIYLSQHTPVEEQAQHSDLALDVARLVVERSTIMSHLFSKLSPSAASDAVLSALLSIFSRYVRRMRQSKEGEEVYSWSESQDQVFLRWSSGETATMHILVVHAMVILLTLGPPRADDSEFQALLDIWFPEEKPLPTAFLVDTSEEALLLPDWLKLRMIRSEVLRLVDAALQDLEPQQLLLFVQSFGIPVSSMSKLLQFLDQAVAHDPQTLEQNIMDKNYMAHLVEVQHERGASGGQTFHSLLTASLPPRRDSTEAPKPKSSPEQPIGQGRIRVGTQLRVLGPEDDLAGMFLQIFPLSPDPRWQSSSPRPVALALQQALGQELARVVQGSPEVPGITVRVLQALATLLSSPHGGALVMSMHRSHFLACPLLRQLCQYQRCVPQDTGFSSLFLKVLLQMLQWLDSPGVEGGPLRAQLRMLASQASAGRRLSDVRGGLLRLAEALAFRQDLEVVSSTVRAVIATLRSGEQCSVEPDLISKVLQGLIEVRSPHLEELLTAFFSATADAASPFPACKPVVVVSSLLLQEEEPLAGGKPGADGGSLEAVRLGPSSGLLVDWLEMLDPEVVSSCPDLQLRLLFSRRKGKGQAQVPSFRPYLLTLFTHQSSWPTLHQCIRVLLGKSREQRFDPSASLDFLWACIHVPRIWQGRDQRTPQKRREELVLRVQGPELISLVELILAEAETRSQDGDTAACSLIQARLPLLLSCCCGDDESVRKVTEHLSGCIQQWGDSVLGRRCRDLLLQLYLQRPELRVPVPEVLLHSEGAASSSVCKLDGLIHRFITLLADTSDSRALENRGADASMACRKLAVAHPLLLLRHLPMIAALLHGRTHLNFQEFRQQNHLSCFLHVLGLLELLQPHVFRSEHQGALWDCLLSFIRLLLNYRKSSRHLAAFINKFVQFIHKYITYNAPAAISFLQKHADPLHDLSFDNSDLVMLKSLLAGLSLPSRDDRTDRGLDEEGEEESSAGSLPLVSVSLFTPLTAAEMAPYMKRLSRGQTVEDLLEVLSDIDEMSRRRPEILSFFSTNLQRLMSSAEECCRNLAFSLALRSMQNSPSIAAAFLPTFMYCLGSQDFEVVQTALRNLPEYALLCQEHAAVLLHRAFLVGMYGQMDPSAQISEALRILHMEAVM
UniProt P38646, 53-73: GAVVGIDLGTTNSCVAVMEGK
UniProt Q96RY7: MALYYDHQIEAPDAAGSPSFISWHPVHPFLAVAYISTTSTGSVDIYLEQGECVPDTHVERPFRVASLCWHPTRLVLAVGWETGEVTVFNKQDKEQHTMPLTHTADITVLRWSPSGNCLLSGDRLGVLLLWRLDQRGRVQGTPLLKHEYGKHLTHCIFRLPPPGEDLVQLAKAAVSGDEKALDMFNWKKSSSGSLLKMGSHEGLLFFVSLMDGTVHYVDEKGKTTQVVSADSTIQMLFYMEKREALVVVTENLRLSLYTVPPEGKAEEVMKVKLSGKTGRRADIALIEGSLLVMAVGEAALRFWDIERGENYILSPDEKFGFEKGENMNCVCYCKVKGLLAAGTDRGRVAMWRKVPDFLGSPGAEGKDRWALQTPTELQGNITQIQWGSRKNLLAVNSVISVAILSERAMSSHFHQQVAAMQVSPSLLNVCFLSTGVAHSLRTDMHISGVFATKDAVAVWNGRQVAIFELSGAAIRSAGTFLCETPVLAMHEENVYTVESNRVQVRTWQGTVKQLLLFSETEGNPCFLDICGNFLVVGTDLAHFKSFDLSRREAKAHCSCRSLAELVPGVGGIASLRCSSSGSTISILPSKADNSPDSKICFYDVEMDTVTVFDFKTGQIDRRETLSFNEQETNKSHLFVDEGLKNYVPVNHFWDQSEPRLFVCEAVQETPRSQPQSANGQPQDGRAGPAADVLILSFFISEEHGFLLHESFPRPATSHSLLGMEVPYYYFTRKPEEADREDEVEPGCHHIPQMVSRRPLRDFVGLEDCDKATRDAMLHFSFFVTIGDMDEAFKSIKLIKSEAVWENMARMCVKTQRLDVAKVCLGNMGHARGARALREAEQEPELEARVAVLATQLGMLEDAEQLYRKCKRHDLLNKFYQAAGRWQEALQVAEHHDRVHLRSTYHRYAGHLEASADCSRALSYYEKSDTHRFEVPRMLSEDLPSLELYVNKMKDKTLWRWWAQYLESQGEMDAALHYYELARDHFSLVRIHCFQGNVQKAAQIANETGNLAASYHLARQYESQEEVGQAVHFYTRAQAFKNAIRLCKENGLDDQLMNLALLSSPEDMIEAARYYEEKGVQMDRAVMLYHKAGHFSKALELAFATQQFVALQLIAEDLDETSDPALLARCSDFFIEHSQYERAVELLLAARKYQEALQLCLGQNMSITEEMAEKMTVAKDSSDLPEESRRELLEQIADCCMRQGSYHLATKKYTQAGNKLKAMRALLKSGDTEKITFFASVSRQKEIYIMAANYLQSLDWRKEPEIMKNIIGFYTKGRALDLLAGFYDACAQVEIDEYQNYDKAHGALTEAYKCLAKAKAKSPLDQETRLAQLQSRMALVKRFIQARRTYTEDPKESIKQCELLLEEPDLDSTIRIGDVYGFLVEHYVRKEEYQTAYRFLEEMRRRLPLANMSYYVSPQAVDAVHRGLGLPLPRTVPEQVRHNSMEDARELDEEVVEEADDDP
UniProt P00492: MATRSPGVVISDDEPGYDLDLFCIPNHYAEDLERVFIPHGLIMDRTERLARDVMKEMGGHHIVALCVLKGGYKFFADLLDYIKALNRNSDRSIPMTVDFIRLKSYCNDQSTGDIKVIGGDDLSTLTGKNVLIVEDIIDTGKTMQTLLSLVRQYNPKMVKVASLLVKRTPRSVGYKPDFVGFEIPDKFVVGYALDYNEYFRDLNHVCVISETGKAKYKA
UniProt O00425, whole entry, looked up: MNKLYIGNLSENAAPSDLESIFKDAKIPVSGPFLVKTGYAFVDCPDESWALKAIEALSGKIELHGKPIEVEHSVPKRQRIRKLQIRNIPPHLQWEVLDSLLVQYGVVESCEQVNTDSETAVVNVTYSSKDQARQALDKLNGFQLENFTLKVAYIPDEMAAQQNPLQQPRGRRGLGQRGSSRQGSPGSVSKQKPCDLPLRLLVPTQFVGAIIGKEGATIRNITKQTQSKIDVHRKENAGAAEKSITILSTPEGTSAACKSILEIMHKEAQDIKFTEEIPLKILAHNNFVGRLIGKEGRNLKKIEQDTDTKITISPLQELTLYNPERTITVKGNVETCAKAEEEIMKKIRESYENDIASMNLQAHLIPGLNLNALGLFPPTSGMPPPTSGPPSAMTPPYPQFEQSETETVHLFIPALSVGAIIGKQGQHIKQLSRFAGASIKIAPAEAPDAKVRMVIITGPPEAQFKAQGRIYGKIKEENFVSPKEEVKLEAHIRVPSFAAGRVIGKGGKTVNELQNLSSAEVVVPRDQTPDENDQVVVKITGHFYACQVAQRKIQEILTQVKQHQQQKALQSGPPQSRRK
UniProt Q8WYA0: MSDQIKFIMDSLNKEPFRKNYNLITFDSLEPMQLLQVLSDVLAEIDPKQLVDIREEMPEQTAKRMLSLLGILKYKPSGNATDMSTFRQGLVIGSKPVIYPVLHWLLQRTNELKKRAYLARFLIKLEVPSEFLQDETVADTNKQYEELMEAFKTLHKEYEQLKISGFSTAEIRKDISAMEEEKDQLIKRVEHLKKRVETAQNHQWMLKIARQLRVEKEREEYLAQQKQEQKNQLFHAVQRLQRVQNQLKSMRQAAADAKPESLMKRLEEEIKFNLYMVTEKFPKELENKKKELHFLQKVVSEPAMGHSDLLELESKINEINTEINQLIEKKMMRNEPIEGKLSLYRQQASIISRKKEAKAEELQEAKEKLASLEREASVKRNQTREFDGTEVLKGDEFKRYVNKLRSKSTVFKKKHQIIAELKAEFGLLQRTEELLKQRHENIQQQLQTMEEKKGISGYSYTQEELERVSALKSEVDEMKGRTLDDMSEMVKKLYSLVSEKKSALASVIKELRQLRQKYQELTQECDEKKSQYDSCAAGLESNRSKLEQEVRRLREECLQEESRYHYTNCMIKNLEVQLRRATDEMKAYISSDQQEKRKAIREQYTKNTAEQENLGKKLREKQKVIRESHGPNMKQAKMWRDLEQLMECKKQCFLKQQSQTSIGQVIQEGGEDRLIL
UniProt Q9H0H0: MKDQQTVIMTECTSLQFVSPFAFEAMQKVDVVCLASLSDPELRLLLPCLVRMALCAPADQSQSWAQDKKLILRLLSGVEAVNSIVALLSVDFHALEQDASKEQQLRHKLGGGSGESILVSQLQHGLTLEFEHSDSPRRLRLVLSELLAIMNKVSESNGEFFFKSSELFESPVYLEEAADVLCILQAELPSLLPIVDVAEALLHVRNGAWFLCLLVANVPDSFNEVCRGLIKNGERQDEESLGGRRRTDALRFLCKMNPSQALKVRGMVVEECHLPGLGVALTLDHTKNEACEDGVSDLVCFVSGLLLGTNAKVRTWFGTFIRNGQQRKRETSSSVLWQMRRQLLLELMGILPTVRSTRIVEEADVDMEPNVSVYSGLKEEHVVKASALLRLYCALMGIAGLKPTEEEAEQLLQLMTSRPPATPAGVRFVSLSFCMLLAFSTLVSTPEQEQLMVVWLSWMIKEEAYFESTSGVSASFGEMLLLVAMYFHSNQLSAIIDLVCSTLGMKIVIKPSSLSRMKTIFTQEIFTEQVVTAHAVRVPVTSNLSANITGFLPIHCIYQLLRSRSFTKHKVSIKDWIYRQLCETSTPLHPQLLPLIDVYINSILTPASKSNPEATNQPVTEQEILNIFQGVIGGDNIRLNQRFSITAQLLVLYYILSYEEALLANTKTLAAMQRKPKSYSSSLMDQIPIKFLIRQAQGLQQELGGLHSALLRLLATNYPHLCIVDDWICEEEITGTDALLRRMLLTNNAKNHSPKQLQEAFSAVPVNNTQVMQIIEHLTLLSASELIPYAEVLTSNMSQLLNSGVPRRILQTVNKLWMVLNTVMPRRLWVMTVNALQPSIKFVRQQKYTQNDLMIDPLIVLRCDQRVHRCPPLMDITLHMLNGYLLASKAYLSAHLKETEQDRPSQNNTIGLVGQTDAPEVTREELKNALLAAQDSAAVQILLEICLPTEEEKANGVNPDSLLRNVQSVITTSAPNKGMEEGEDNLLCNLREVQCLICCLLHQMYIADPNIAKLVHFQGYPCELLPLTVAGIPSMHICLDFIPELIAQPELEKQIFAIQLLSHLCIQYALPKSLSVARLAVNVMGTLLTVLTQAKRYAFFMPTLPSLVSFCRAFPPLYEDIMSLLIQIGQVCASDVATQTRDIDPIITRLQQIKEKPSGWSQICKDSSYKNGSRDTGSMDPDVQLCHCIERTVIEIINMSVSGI

compound: ClCC(=O)N[C@H]1CCCc2ccccc12; test: log2 mean competition ratio of IA-DTB cysteine labelling (DMSO/compound) (log2 ratio); higher = stronger cysteine engagement by compound; details: 50 µM; treatment time: 4 h; cell line lysate: HEK293T
Protocol: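 IA-DTB competitive cysteine chemoproteomics in HEK293T RIPA lysate. Lysates were treated with compound 29 or 30 at 50 or 200 µM for 4 h, then IA-DTB (500 µM, 1 h), trypsin-digested, NeutrAvidin-enriched and analysed by diaPASEF. Competition ratio = intensity DMSO / intensity compound (n=4 treated, n=64 DMSO); binding: mean log2 CR ≥ 1 and p ≤ 0.05 plus QC filters. Target is the cysteine site.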

| Target | log2 mean competition ratio |
| --- | --- |
| IBTK C231 (UniProt Q9P2D0) | 0.0524 |
| INTS3 C731 (UniProt Q68E01) | 0.0296 |
| INTS1 C1534 (UniProt Q8N201) | 0.129 |
| HSPA9 C66 (UniProt P38646) | 0.229 |
| IBTK C522 (UniProt Q9P2D0) | 0.164 |
| HUWE1 C2721 | -0.0746 |
| IFT140 C1129 (UniProt Q96RY7) | -0.534 |
| HPRT1 C206 (UniProt P00492) | 0.206 |
| IPO5 C1057 | 0.362 |
| IGF2BP3 C336 (UniProt O00425) | 0.164 |
| ICE1 C904 (UniProt Q9Y2F5) | -0.515 |
| IGF2R C1856 (UniProt P11717) | 0.0397 |
| IDH2 C113 (UniProt P48735) | -0.195 |
| INPP4A C230 (UniProt Q96PE3) | 0.0714 |
| IGF2BP3 C257 (UniProt O00425) | 0.0885 |
| IFT81 C557 (UniProt Q8WYA0) | -0.292 |
| HPRT1 C106 (UniProt P00492) | -0.0663 |
| INTS2 C988 (UniProt Q9H0H0) | -0.243 |
| IPO4 C459 (UniProt Q8TEX9) | -0.164 |
| IFFO1 C331 | 0.164 |

same assay, conditions: 200 µM; treatment time: 4 h; cell line lysate: HEK293T

| Target | log2 mean competition ratio |
| --- | --- |
| IBTK C231 (UniProt Q9P2D0) | -0.104 |
| INTS3 C731 (UniProt Q68E01) | 0.355 |
| INTS1 C1534 (UniProt Q8N201) | -0.151 |
| HSPA9 C66 (UniProt P38646) | -0.0801 |
| IBTK C522 (UniProt Q9P2D0) | -0.201 |
| HUWE1 C2721 | -0.113 |
| IFT140 C1129 (UniProt Q96RY7) | 0.0769 |
| HPRT1 C206 (UniProt P00492) | 0.0444 |
| IPO5 C1057 | 0.122 |
| IGF2BP3 C336 (UniProt O00425) | 0.162 |
| ICE1 C904 (UniProt Q9Y2F5) | 0.192 |
| IGF2R C1856 (UniProt P11717) | 0.514 |
| IDH2 C113 (UniProt P48735) | -0.165 |
| INPP4A C230 (UniProt Q96PE3) | -0.141 |
| IGF2BP3 C257 (UniProt O00425) | 0.0112 |
| IFT81 C557 (UniProt Q8WYA0) | 0.302 |
| HPRT1 C106 (UniProt P00492) | -0.0752 |
| INTS2 C988 (UniProt Q9H0H0) | 0.145 |
| IPO4 C459 (UniProt Q8TEX9) | 0.281 |
| IFFO1 C331 | 0.49 |
